Measurements reported in PubChem BioAssay AID720505 (Drosophila RNAi Screening Center, 2013)
Test: 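Fly regulators or components of the CRAC channel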 (primary screen). Cell system: Drosophila S2R+ cells. Reagent: long dsRNA against Drosophila genes. Challenge: thapsigargin (2 µM) in calcium-free buffer to empty internal stores, then 2 mM calcium added back. Detection: 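Stores emptied by 2 µM thapsigargin without calcium, then 2 mM calcium re-added; fluo-4 fluorescence followed by FLIPR in 384-well plates, per-well averaged endpoint, raw; two screen passes, some wells retested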. Direction: calcium signal and retest calcium signal: higher = more calcium entry after store depletion. Rule for the call: 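Knock-downs counted as hits when calcium entry dropped relative to STIM1 positive and Rho1 negative controls present on each plate; roughly 1500 genes called, with reductions of differing size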. Meaning of the calls: active = called as lowering calcium entry; inactive = not called.
The screen tested about 20,000 reagents; this is a random part of those that have a named target and a result. Over the whole deposit, about 2,100 (10%) are marked active. 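Raw plate signals without normalisation; calls rest on control-based scores that were not deposited; replicate 2 separates called from uncalled poorly.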 Unmarked entries are inactive. A plus sign joins genes that one reagent is predicted to hit. The record does not give: the amount of reagent, the time to read-out.

The opening 5 entries, ahead of the listing:
| gene | dsRNA | calcium signal, replicate 1 | calcium signal, replicate 2 | retest calcium signal, replicate 1 | retest calcium signal, replicate 2 |
| --- | --- | --- | --- | --- | --- |
| Eglp3 | DRSC04293 | 117 | 168 | – | – |
| C3G | DRSC17745 | 158 | 86.9 | – | – |
| C3G | DRSC17929 | 174 | 113 | – | – |
| C3G | DRSC22329 | 109 | 245 | – | – |
| C3G | DRSC23077 | 120 | 121 | – | – |

Results, repeating the preview:
| gene | dsRNA | calcium signal, replicate 1 | calcium signal, replicate 2 | retest calcium signal, replicate 1 | retest calcium signal, replicate 2 |
| --- | --- | --- | --- | --- | --- |
| Eglp3 | DRSC04293 | 117 | 168 | – | – |
| C3G | DRSC17745 | 158 | 86.9 | – | – |
| C3G | DRSC17929 | 174 | 113 | – | – |
| C3G | DRSC22329 | 109 | 245 | – | – |
| C3G | DRSC23077 | 120 | 121 | – | – |
| Tie | DRSC08702 | 73.1 | 55.6 | – | – |
| ry | DRSC17048 | 123 | 80.5 | – | – |
| CG15506 | DRSC15047 | 195 | 171 | – | – |
| CG8191 | DRSC20091 | 117 | 143 | – | – |
| CG12909 | DRSC06224 | 113 | 127 | – | – |
| CG1409 | DRSC17910 | 57.8 (active) | 278 | – | – |
| GABA-B-R1 | DRSC22038 | 84.5 | 215 | – | – |
| CG2124 | DRSC18208 | 76.1 | 104 | – | – |
| ATPsynE | DRSC15476 | 107 | 142 | – | – |
| CG13038 | DRSC09919 | 108 | 184 | – | – |
| CG8642 | DRSC07228 | 122 | 149 | – | – |
| bnl | DRSC16913 | 125 | 261 | – | – |
| bnl | DRSC23212 | 114 | 133 | – | – |
| CG31954 | DRSC00580 | 133 | 287 | – | – |
| CG13377 | DRSC18622 | 110 | 131 | – | – |
| CG3119 | DRSC00569 | 177 | 94.1 | – | – |
| Hr3 | DRSC06118 | 130 | 164 | – | – |
| Hr3 | DRSC07441 | 130 | 193 | – | – |
| Cenp-C | DRSC14371 | 125 | 143 | – | – |
| CG13358 | DRSC18534 | 92.5 | 117 | – | – |
| CG32176 | DRSC10057 | 139 | 162 | – | – |
| CG32176 | DRSC10058 | 89.1 | 174 | – | – |
| endos | DRSC10658 | 94.8 | 110 | – | – |
| Stt3A | DRSC20514 | 226 | 186 | – | – |
| CG1143 | DRSC08188 | 102 | 149 | – | – |
| CG18735 | DRSC04312 | 201 | 121 | – | – |
| CG13551 | DRSC21847 | 85.3 | 108 | – | – |
| Vrp1 | DRSC04148 | 108 | 93.7 | – | – |
| Naprt | DRSC00630 | 136 | 276 | – | – |
| CG30020 | DRSC06252 | 94 | 168 | – | – |
| CG30020 | DRSC06730 | 102 | 107 | – | – |
| CG12121 | DRSC17816 | 79 | 97 | – | – |
| CG2614 | DRSC02711 | 76 | 105 | – | – |
| myd | DRSC14762 | 155 | 194 | – | – |
| myd | DRSC15512 | 118 | 135 | – | – |
| CG4424 | DRSC15576 | 212 | 207 | – | – |
| Gr59e | DRSC04276 | 176 | 233 | – | – |
| CG15210 | DRSC19656 | 97.6 | 93.7 | – | – |
| CCT6 | DRSC20095 | 132 | 124 | – | – |
| CG30268 | DRSC21983 | 99.9 | 108 | – | – |
| mi | DRSC04498 | 150 | 83.9 | – | – |
| CG32181 | DRSC22635 | 91.5 | 216 | – | – |
| Uba3 | DRSC06377 | 188 | 136 | – | – |
| AGBE | DRSC06861 | 137 | 105 | – | – |
| Synd | DRSC15116 | 146 | 171 | – | – |
| mRpL32 | DRSC14479 | 179 | 160 | – | – |
| CG15353 | DRSC00383 | 104 | 134 | 5518 | 134 |
| DptA | DRSC07404 | 124 | 124 | – | – |
| BBS8 | DRSC00360 | 112 | 97.2 | – | – |
| ClC-c | DRSC10499 | 133 | 84.7 | – | – |
| ovm + CG31975 | DRSC22146 | 109 | 151 | – | – |
